From doi:10.1101/2023.02.16.528867
These are yes or no findings as the source states them, for the method shown. Binding seen in cells or lysates may run through a third protein. These calls come from enrichment with a bait or labelling near it, and not all partners need be listed.

Molecular target: T1, GABAA receptor α1 subunit, native, from mouse brain (mouse (endogenous in brain)), P62812
T1 chain: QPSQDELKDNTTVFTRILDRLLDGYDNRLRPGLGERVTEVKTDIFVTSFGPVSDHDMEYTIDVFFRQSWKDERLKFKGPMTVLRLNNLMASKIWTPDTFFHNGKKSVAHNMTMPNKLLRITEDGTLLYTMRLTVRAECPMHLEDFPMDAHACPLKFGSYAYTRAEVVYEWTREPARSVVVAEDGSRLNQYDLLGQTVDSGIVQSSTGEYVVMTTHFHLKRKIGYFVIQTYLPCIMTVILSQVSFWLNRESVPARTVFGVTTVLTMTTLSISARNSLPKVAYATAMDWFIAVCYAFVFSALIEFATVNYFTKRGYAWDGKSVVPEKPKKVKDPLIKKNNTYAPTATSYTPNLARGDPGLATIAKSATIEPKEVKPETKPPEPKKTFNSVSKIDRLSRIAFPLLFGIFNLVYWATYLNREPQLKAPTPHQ
Test: affinity purification with mass spectrometry
Conditions: remark: other sources report otherwise

B1: GABAA receptor α4 subunit, native, from mouse brain, Q9D6F4 36-552 (receptor)
chain: QNSKDEKLCPENFTRILDSLLDGYDNRLRPGFGGPVTEVKTDIYVTSFGPVSDVEMEYTMDVFFRQTWIDKRLKYDGPIEILRLNNMMVTKVWTPDTFFRNGKKSVSHNMTAPNKLFRIMRNGTILYTMRLTISAECPMRLVDFPMDGHACPLKFGSYAYPKSEMIYTWTKGPEKSVEVPKESSSLVQYDLIGQTVSSETIKSITGEYIVMTVYFHLRRKMGYFMIQTYIPCIMTVILSQVSFWINKESVPARTVFGITTVLTMTTLSISARHSLPKVSYATAMDWFIAVCFAFVFSALIEFAAVNYFTNIQMQKAKKKISKPPPEVPAAPVLKEKHTETSLQNTHANLNMRKRTNALVHSESDVKSRTEVGNHSSKTSAVQESSEATPKAHLASSPNPFSRANAAETMSAAARGLSSAASPSPHGTLRPASLGSASTRPAFGSRLGRIKTTVNTTGAAGNVSATPPPPAPPPSGSGTSKIDKYARILFPVTFGAFNMVYWVVYLSKDTMEKSESLM
modifications: here or on the partner: N-glycosylated
- binding: binds
